Experimental data: PMC10696399
Results are given in words; binding and its absence hold for the method and conditions named. In cells and extracts the contact can be indirect. Some entries that bind do so weakly or less than the wild type.

Amino acid sequences for entries named in this document (tags omitted).
UniProt P21454: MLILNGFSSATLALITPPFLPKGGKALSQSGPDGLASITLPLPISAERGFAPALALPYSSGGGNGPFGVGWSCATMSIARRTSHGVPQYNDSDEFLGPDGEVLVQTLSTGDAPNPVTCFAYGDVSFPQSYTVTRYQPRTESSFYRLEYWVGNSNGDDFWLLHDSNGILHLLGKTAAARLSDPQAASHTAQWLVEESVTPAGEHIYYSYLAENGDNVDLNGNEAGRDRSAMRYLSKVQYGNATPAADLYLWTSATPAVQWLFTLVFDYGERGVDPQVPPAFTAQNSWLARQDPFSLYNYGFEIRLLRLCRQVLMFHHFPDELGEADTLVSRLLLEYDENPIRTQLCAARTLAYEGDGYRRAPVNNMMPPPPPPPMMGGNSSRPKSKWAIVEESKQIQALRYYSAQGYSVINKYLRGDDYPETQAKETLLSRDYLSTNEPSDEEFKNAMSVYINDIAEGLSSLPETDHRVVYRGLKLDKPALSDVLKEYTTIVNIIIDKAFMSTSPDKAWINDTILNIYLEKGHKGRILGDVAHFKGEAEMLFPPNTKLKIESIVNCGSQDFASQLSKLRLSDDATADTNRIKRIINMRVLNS
UniProt Q00610: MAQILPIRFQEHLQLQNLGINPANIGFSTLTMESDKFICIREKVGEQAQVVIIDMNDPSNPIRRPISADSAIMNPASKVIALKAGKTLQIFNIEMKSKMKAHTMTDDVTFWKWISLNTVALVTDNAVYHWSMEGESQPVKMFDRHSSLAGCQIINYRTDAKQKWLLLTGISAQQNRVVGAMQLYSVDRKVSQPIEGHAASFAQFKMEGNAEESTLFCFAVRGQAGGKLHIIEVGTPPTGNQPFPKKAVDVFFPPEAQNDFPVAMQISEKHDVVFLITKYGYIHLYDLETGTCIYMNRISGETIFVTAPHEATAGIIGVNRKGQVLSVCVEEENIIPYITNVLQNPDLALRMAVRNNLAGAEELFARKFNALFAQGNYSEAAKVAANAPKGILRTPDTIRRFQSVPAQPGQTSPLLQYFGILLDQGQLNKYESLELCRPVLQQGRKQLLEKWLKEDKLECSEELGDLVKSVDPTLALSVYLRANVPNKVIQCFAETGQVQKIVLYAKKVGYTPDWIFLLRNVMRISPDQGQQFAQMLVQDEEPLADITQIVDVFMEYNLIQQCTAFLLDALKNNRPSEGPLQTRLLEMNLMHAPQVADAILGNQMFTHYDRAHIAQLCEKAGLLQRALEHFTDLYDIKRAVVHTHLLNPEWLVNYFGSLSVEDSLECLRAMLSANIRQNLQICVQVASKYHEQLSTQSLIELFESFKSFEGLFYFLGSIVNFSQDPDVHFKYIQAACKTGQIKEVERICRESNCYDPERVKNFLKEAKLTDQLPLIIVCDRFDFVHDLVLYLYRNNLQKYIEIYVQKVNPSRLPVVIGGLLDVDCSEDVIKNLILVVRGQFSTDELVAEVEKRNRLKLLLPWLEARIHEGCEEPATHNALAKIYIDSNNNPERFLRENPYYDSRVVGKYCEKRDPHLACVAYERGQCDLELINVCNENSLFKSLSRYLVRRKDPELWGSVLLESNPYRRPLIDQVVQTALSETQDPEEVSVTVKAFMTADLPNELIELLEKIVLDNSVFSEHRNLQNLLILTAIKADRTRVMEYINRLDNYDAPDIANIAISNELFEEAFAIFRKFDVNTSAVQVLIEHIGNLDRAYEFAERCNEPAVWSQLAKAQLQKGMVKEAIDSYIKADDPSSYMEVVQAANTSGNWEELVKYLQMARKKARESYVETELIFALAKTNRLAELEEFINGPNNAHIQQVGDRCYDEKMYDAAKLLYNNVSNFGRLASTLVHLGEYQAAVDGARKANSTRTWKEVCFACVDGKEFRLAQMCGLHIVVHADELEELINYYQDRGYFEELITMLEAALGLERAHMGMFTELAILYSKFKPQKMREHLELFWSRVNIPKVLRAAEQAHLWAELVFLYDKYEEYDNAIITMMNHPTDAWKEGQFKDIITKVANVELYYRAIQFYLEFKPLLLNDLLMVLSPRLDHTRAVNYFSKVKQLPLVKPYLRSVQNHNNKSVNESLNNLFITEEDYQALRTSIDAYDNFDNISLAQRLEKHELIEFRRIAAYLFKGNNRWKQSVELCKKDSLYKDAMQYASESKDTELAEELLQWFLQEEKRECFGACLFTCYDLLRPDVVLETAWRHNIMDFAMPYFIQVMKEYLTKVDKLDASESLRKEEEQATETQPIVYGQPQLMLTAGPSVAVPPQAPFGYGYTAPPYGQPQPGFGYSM

Target: FLAG-tagged SpvB (S. Typhimurium strain SL1344) (UniProt P21454)
Assay: co-IP

## clathrin heavy chain (endogenous) (from UniProt Q00610 1-1675)
  binding: binds
